Experimental findings from the supplement of paper PMC11348887 are described below.

Structures are written as SMILES. Counter-ions that a name gives are not always drawn. The list shows a part of the results. Most values lie at the level of the controls, where differences are scatter.

What all share (settings): 5 µM; treatment: days 7-14 after plating, readout day 21
Assay [1] has as its system hPSC-derived cortical neurons (WA09). Description: nucleus area z-score vs screen plate; higher = larger nuclei (more mature).
The test system is the same in assay [2]. Description: total neurite length per nucleus (MAP2) z-score; higher = more neurite growth.
Assay [3] shares this test system. The assay can be described thus: nucleus roundness z-score vs screen plate; higher = rounder nuclei (more mature).
Assay [4] shares this test system. The assay can be described thus: KCl-induced FOS+/EGR-1+ double-positive nuclei fraction z-score (KCl minus unstimulated); higher = stronger activity-induced IEG response.

`CO[C@@H]1[C@@H](OC(N)=O)[C@@H](O)[C@H](Oc2ccc3c(O)c(NC(=O)c4ccc(O)c(CC=C(C)C)c4)c(=O)oc3c2C)OC1(C)C` [Novobiocin Sodium] showed a nucleus area z-score in assay [1] of 0.253. The “total neurite length per nucleus (z-score)” value in assay [2] turned out to be 0.137. In assay [3], this molecule returned a nucleus roundness z-score of 0.373. Moreover, in assay [4], the “KCl-induced FOS+/EGR-1+ double-positive nuclei fraction z-score” value amounted to 0.852.
Taken in the same sequence, the figures for `NS(=O)(=O)c1ccc(NC(=O)Nc2ccc(F)cc2)cc1` were 0.626, 0.362, 1.16 and 0.115.
Taken in the same sequence, the figures for `CS(=O)(=O)N1CCc2c(-c3cnc(N)nc3)nc(N3CCOCC3)nc21` were -0.979, -0.0937, -0.56 and -1.1.
As for `CC1(C)S[C@@H]2[C@H](NC(=O)Cc3ccccc3)C(=O)N2[C@H]1C(=O)O` [Penicillin G Sodium], the nucleus area z-score in assay [1] is -0.167. In assay [2], the “total neurite length per nucleus (z-score)” value came out at 0.687. The molecule also came in with a nucleus roundness z-score in assay [3] of 0.84. In assay [4], the “KCl-induced FOS+/EGR-1+ double-positive nuclei fraction z-score” value turned out to be 0.896.
Taken in the same sequence, the figures for `COc1ccccc1N1CCN(CCN2C(=O)CC3(CCCC3)CC2=O)CC1` were 0.31, 0.873, 0.996 and 0.589.
Taken in the same sequence, the figures for `Cn1nccc1Nc1nccc(-c2ccn([C@H](CO)c3ccc(Cl)c(F)c3)c(=O)c2)n1` were -2.43, -1.26, 1.35 and -0.129.
For the molecule `CCO[C@@H]1OC(=O)C[C@@H]1NC(=O)[C@@H]1CCCN1C(=O)[C@@H](NC(=O)c1ccc(N)c(Cl)c1)C(C)(C)C`, in assay [1], the nucleus area z-score was determined as 2.31. Also, the “total neurite length per nucleus (z-score)” value in assay [2] is -2.05. This molecule also came in with a nucleus roundness z-score in assay [3] of -1.23. The “KCl-induced FOS+/EGR-1+ double-positive nuclei fraction z-score” value in assay [4] is -0.726.
In assay [1], `Cc1nc(-c2cn3c(n2)-c2ccc(-c4cnn(C(C)(C)C(N)=O)c4)cc2OCC3)n(C(C)C)n1` showed a nucleus area z-score of -4.25. The “total neurite length per nucleus (z-score)” value in assay [2] was -0.636. The molecule also yielded a nucleus roundness z-score in assay [3] of -0.302. Besides, in assay [4], the “KCl-induced FOS+/EGR-1+ double-positive nuclei fraction z-score” value worked out at 0.629.
Taken in the same sequence, the figures for `O=C(NCc1ccncc1)C12CC3CC(C1)CC(c1ccc(Cl)cc1)(C3)C2` were 2.12, -0.596, -0.631 and 0.628.
`CN1CCN(CCCNc2ncc(Cl)c(-c3cc4c(C(=O)NC5CC5)cccc4s3)n2)CC1`: the nucleus area z-score in assay [1] was -0.457. Besides, in assay [2], the “total neurite length per nucleus (z-score)” value stood at 0.575. The molecule further had a nucleus roundness z-score in assay [3] of 0.501. In addition, the “KCl-induced FOS+/EGR-1+ double-positive nuclei fraction z-score” value in assay [4] is -0.482.
`Cc1[nH]c(/C=C2\C(=O)Nc3ccccc32)c(C)c1CCC(=O)O` [TSU-68 (SU6668_ Orantinib)] gave a nucleus area z-score in assay [1] of 0.109. In addition, the “total neurite length per nucleus (z-score)” value in assay [2] is 0.411. The nucleus roundness z-score in assay [3] was 0.315. For the same molecule, the “KCl-induced FOS+/EGR-1+ double-positive nuclei fraction z-score” value in assay [4] amounted to 0.836.
Taken in the same sequence, the figures for `COc1cc2ncnc(Nc3cccc(Cl)c3F)c2cc1OC(=O)N1CCN(C)C[C@H]1C` were 0.0424, 1.11, 1.16 and 0.375.
Taken in the same sequence, the figures for `N#CC[C@H](C1CCCC1)n1cc(-c2ncnc3[nH]ccc23)cn1` were 1.17, 0.144, 0.395 and 1.32.
In turn, `COc1cc(Nc2ncc3c(n2)-c2ccc(Cl)cc2C(c2c(F)cccc2OC)=NC3)ccc1C(=O)O` [Alisertib (MLN8237)] yielded a nucleus area z-score in assay [1] of -6.36. Besides, the “total neurite length per nucleus (z-score)” value in assay [2] is -0.946. In assay [3], this molecule came in with a nucleus roundness z-score of -2.38. In assay [4], the “KCl-induced FOS+/EGR-1+ double-positive nuclei fraction z-score” value is -0.0482.
Taken in the same sequence, the figures for `COc1ccc2[nH]c([S+]([O-])Cc3ncc(C)c(OC)c3C)nc2c1` (stereo not given) [Omeprazole] were -6.42, -2.23, 1.24 and -0.888.
Taken in the same sequence, the figures for `Cc1nc2c([nH]1)-c1ccccc1N(C(=O)c1ccc(NC(=O)c3ccccc3-c3ccccc3)cc1)CC2` [Conivaptan HCl] were 1.26, -0.145, -0.809 and -0.252.
Taken in the same sequence, the figures for `C[C@]1(c2nc3c(C(N)=O)cccc3[nH]2)CCCN1` [Veliparib (ABT-888)] were 0.406, 1.04, 0.109 and 2.11.
Take `CC12CCC(CC1=O)C2(C)C` (stereo not drawn) [(+)-Camphor]: in assay [1], the nucleus area z-score worked out at 0.0894. Further, the “total neurite length per nucleus (z-score)” value in assay [2] amounted to 0.501. The same molecule came in with a nucleus roundness z-score in assay [3] of 1.06. Also, in assay [4], the “KCl-induced FOS+/EGR-1+ double-positive nuclei fraction z-score” value amounted to 0.658.
With `COc1cc2ncnc(Nc3ccc(F)c(Cl)c3)c2cc1NC(=O)/C=C/CN1CCCCC1`, the nucleus area z-score in assay [1] is -0.354. The “total neurite length per nucleus (z-score)” value in assay [2] came to 0.167. Moreover, the nucleus roundness z-score in assay [3] amounted to 0.673. Besides, in assay [4], the “KCl-induced FOS+/EGR-1+ double-positive nuclei fraction z-score” value was -0.801.
As to `CC(C)(Oc1ccc(C(=O)c2ccc(Cl)cc2)cc1)C(=O)O` [Fenofibric acid], in assay [1], the nucleus area z-score stood at 0.451. In addition, in assay [2], the “total neurite length per nucleus (z-score)” value is -0.728. Besides, the nucleus roundness z-score in assay [3] was -0.104. Further, the “KCl-induced FOS+/EGR-1+ double-positive nuclei fraction z-score” value in assay [4] is -0.274.
Take `COc1cc(-c2cc(-c3ccc(N4CCNCC4)cc3)cnc2C)cc(OC)c1OC`: in assay [1], the nucleus area z-score turned out to be 1.51. Further, the “total neurite length per nucleus (z-score)” value in assay [2] came to 1.3. For the same molecule, in assay [3], the nucleus roundness z-score came out at 0.957. Further, the “KCl-induced FOS+/EGR-1+ double-positive nuclei fraction z-score” value in assay [4] was 1.63.
Taken in the same sequence, the figures for `CS(=O)(=O)OCCCCOS(C)(=O)=O` [Busulfan] were -0.216, 0.964, 0.851 and 2.14.
Taken in the same sequence, the figures for `CC(=O)O/N=C1\C(=O)N(Cc2cc(Cl)ccc2Cl)c2ccc(Cl)cc21` were -1.07, 0.954, 1.61 and -0.0489.
Taken in the same sequence, the figures for `NC(=O)N1c2ccccc2CC(=O)c2ccccc21` [Oxcarbazepine] were 1.32, -0.298, -1.57 and -0.153.
`Cc1cc(=O)oc2cc(O)ccc12` [4-Methylumbelliferone (4-MU)] showed a nucleus area z-score in assay [1] of 0.702. The “total neurite length per nucleus (z-score)” value in assay [2] was -0.882. In assay [3], the nucleus roundness z-score was -0.429. In addition, the “KCl-induced FOS+/EGR-1+ double-positive nuclei fraction z-score” value in assay [4] is 1.13.
Taken in the same sequence, the figures for `O=C(Nc1nc2cccc(-c3ccc(CN4CCS(=O)(=O)CC4)cc3)n2n1)C1CC1` [Filgotinib (GLPG0634)] were 1.73, 0.203, 0.625 and 0.437.
In assay [1], `CC(C)(C)C(=O)Nc1ccc2c(c1)C(=O)C(=O)c1ccccc1-2` gave a nucleus area z-score of 0.677. Further, the “total neurite length per nucleus (z-score)” value in assay [2] came to 0.0216. In assay [3], the nucleus roundness z-score is 1.19. Moreover, the “KCl-induced FOS+/EGR-1+ double-positive nuclei fraction z-score” value in assay [4] was found to be 0.322.
In turn, `O=c1sn(-c2cccc3ccccc23)c(=O)n1Cc1ccccc1` [Tideglusib] gave a nucleus area z-score in assay [1] of -0.401. The “total neurite length per nucleus (z-score)” value in assay [2] came to 0.64. Besides, the nucleus roundness z-score in assay [3] is 0.452. The “KCl-induced FOS+/EGR-1+ double-positive nuclei fraction z-score” value in assay [4] was 0.568.
Taken in the same sequence, the figures for `CC(C)Oc1ccc(-c2c[nH]cc2CN(C)CCN)cc1` were 0.165, -0.853, 0.067 and -0.702.
Taken in the same sequence, the figures for `COc1nc(OCc2cccc(-c3ccccc3)c2C)ccc1CNCCNC(C)=O` [PD-1/PD-L1 inhibitor 2] were -2, -1.84, -3.33 and -0.721.
